Experimental findings from paper PMC8080264 are described below.

Sequences of proteins named here, by UniProt entry; tags and fusion partners are left off. Residues count along the entry.
UniProt Q9UQQ2: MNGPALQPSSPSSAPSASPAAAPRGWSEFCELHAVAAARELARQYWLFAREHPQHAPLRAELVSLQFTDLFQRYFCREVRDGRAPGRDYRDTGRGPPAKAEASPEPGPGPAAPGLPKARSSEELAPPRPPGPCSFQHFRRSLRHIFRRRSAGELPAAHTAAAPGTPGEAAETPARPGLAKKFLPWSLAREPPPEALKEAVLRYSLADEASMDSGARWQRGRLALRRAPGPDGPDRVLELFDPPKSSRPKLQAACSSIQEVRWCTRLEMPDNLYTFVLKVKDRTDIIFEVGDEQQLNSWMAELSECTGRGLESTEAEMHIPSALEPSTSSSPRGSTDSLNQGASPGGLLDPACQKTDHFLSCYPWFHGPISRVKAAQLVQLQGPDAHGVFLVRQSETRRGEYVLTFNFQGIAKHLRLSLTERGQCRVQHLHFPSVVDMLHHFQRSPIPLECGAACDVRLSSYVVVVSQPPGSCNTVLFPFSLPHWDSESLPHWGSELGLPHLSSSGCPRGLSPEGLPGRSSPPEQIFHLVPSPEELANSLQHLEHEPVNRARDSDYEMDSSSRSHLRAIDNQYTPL
UniProt P40189, residues 23-918: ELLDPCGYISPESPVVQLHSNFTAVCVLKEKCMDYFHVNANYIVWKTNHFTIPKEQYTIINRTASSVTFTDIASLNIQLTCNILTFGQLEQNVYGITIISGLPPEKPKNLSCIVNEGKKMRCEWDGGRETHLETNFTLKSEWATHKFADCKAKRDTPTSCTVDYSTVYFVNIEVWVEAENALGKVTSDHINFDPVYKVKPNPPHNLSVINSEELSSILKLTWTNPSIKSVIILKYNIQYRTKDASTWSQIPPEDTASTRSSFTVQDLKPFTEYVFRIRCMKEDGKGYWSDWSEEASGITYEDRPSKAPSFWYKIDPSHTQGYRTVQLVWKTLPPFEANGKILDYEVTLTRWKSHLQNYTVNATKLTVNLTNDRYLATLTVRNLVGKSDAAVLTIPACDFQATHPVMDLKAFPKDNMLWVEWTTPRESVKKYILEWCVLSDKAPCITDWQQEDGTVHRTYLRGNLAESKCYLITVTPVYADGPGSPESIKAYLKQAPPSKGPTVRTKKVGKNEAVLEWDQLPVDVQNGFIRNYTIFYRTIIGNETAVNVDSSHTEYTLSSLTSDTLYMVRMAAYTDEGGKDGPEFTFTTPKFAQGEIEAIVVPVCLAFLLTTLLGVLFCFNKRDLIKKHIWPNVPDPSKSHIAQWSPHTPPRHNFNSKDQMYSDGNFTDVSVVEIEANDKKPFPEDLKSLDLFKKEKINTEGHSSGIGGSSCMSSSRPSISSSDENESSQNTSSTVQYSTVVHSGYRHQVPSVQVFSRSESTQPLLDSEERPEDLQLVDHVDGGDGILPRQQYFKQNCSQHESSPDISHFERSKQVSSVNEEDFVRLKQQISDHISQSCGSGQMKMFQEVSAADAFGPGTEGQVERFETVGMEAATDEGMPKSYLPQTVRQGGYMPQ

Results are given in words; binding and its absence hold for the method and conditions named. In cells and extracts the contact can be indirect. Some entries that bind do so weakly or less than the wild type.

The target in test [1] is SH2B adaptor protein 3 (SH2B3) (human) (UniProt Q9UQQ2). Briefly: co-IP; cells lysed in RIPA buffer with protease inhibitors, lysate pre-cleared with protein A/G beads, primary antibody (anti-SH2B3 ab154848 or anti-gp130 sc-655, 1:100) overnight at 4°C, protein A/G beads 2 h, four washes with ice-cold PBS, immunoblot; cell line not stated. (Immunoblotting shows a protein as a band on a membrane.)

Test [2] has as its target IL-6 receptor glycoprotein 130 (gp130) (human (endogenous in human GBM cell lines)) (UniProt P40189). Described as above.

Take “IL-6 receptor glycoprotein 130 (gp130) (from UniProt P40189 23-918)”: in test [1], the binding entry is listed as “binds”.
As to “SH2B adaptor protein 3 (SH2B3) (from UniProt Q9UQQ2 1-575)”, the binding result in test [2] was “binds”.
